From the supplement of paper PMC11150407 come the findings set out here.

“And” between values parts separate entries of the source, which are not always exact repeats. Equal entries are not always repeated. Hit rate of the full screen: of about 2,100 compounds, about 180 (8.6%) showed an effect of 50% or more. This is one part of the list.

The experiment has as its system MOLM1 and UCSD/AML1 (averaged). The experiment can be described thus: cell viability relative to DMSO control (POC); higher = less growth inhibition. Particulars: 1 µM; 72 h. The method, then: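 Primary viability screen in the 3q26 EVI1-high AML cell lines MOLM1 and UCSD/AML1 (1.5e3 cells/well, 384-well), compounds at 1 uM for 72 h. ATP CellTiter-Glo read-out given as percent of viable cells over DMSO control (POC), averaged over duplicates. DMSO was the negative control and 5 uM etoposide the positive control. This mapping covers the MicroSource Spectrum and Selleck anticancer libraries (drug names).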
As usually defined, the cell viability is a read-out of living cells in per cent, often relative to untreated cells. For `CCOC(=O)OC(C)OC(=O)[C@@H]1N2C(=O)[C@@H](NC(=O)[C@H](N)c3ccccc3)[C@H]2SC1(C)C` (some centres not stated), the cell viability turned out to be 93.4%.
For `COc1c2ccoc2nc2c(OC)c(OCC(O)C(C)(C)O)ccc12` (configuration not stated), the cell viability came out at 90.2%.
As for `CC[C@H]1OC(=O)[C@H](C)[C@@H](O[C@H]2C[C@@](C)(OC)[C@@H](O)[C@H](C)O2)[C@H](C)[C@@H](O[C@@H]2O[C@H](C)C[C@H](N(C)C)[C@H]2O)[C@](C)(O)C[C@@H](C)/C(=N\OCOCCOC)[C@H](C)[C@@H](O)[C@]1(C)O`, the cell viability is 97.8%.
As for `CC(=O)N[C@@H](CC(C)C)C(=O)O`, the figure is 93.7%; as for `Nc1nc(=O)c2nc(CNc3ccc(C(=O)N[C@@H](CCC(=O)O)C(=O)O)cc3)cnc2[nH]1`, 113%.
Next, `C=CC[S+]([O-])C[C@H](N)C(=O)O` (mixture of isomers): 89.6%; `O=C([O-])[C@H]1/C(=C/CO)O[C@@H]2CC(=O)N21.[Li+]`: 90.4%; `CC(C)CC(=O)Nc1n[nH]c2c1CN(C(=O)C1CCN(C)CC1)C2(C)C`: 49.4%.
`COc1ccc(-c2cc(=O)c3c(O)cc(O)cc3o2)cc1O`: the cell viability was 83%.
As for `Nc1nc(Cl)nc2c1ncn2[C@@H]1O[C@H](CO)[C@@H](O)[C@@H]1F` [Clofarabine], the figure is 6.72%.
As for `COc1cc2ccc(=O)oc2c(OC)c1OC`, the figure is 110%; as for `O=C1CN2Cc3c(ccc(Cl)c3Cl)N=C2N1`, 97.9%.
Next, `C#CCCCCCCCCCCCC(O)CC(O)CO` (configuration not stated): 55.1%; `CC(C)NCC(O)COc1ccc(COCCOC(C)C)cc1` (configuration not stated): 84.9%.
On to `CN(C)Cc1c(C(=O)NCCOc2ccc(C(=O)NO)cc2)oc2ccccc12`, for which the cell viability stood at 1.01%.
Next, `O=c1cc(-c2ccc(O)cc2)oc2cc(O)cc(O)c12`: 98.6%; `O=C(Cn1ccnc1[N+](=O)[O-])NCCO`: 94.5%.
As for `CC(=O)OCC(COC(C)=O)OC(C)=O`, the figure is 102%; as for `CN(C)CCN(Cc1cccs1)c1ccccn1`, 96.2%.
As for `COc1ccc2c(c1)OCc1c-2oc2cc(OC)ccc12`, the figure is 99%.
On to `COc1ccc([C@H]2COc3c(ccc(O)c3OC)C2)c(OC)c1O`, for which the cell viability amounted to 116%.
For the compound `NC(=O)N1c2ccccc2C=Cc2ccccc21`, the cell viability was found to be 109%.
As for `C[C@]12CC[C@@H]3c4ccc(O)cc4CC[C@H]3[C@@H]1CCC2=O`, the figure is 104%; as for `C[C@]12CC[C@@H]3c4ccc(O)cc4CC[C@H]3[C@@H]1CCC2=O` [Estrone], 79%; as for `CCCCCCCCc1ccc(CCC(N)(CO)CO)cc1` [Fingolimod (FTY720)], 76.7%.
As for `CC(=O)OCC1=C(C(=O)O)N2C(=O)[C@@H](NC(=O)CSc3ccncc3)[C@H]2SC1`, the figure is 101%; as for `CN(C)[C@@H]1C(O)=C(C(N)=O)C(=O)[C@@]2(O)C(O)=C3C(=O)c4c(O)ccc(Cl)c4[C@@](C)(O)[C@H]3C[C@@H]12`, 106%.
As for `O=C1OC2(c3ccc(O)cc3Oc3cc(O)ccc32)c2ccccc21`, the figure is 96.8%.
Consider `Cc1cccc(CN2CCN(C(c3ccccc3)c3ccc(Cl)cc3)CC2)c1` (configuration not stated), for which the cell viability is 101%.
As for `COc1cnc(NS(=O)(=O)c2ccc(N)cc2)nc1`, the figure is 100%.
Next, `O=C(O)CCC(=O)Nc1ccc(S(=O)(=O)Nc2nccs2)cc1`: 113%; `O=NN(CCCl)C(=O)NC1CCCCC1` [Lomustine (CeeNU)]: 94.3%; `CCOC(=O)C1=C[C@]2(CC)CCCN3CCc4c(n1c1ccccc41)[C@@H]32` [Vinpocetine (Cavinton)]: 108%.
Consider `CC(=O)OCC(=O)[C@@]1(O)CC[C@H]2[C@@H]3C[C@H](C)C4=CC(=O)C=C[C@]4(C)[C@H]3[C@@H](O)C[C@@]21C` [6alpha-METHYLPREDNISOLONE ACETATE], for which the cell viability is 65%.
Next, `COC(=O)C[C@H]1C(C)(C)[C@@H](O)[C@@H]2CC3=C4CC(O)O[C@@H](c5ccoc5)[C@]4(C)CCC3[C@@]1(C)C2=O` (stereo partly drawn) [3,16-DIDEOXYMEXICANOLIDE-3beta-DIOL]: 86.1%; `COc1cc(Nc2ncc(F)c(Nc3ccc4c(n3)N(COP(=O)(O)O)C(=O)C(C)(C)O4)n2)cc(OC)c1OC`: 58.3%; `COc1ccc(-c2cc(=O)c3c(O)cc(O[C@@H]4O[C@H](CO[C@@H]5O[C@@H](C)[C@H](O)[C@@H](O)[C@H]5O)[C@@H](O)[C@H](O)[C@H]4O)cc3o2)cc1O`: 96.4%.
As for `O=c1c2cc(O)c(O)cc2oc2cc(O)c([C@@H]3O[C@H](CO)[C@@H](O)[C@H](O)[C@H]3O)c(O)c12`, the figure is 96.4%; as for `C=C1C[C@]23C[C@@]1(O)CC[C@H]2[C@@]12C=C[C@H](O)[C@@](C)(C(=O)O1)[C@H]2[C@@H]3C(=O)O`, 100%.
As for `Cc1nnc(C(C)C)n1C1C[C@H]2CC[C@@H](C1)N2CC[C@H](NC(=O)C1CCC(F)(F)CC1)c1ccccc1` (stereo in doubt) [Maraviroc], the figure is 96.2%; as for `CCC(CC)CC1(C(=O)Nc2ccccc2SC(=O)C(C)C)CCCCC1` [Dalcetrapib?JTT-705?], 90.1%; as for `CN1[C@@H](CC(=O)c2ccccc2)CCC[C@H]1C[C@H](O)c1ccccc1`, 105%.
For the compound `COc1cc(C)c(C(=O)Oc2cc(C)c(C(=O)O)c(O)c2C)c(O)c1C=O`, the cell viability was 91.2%.
Next, `Cn1cc(-c2ccc3nnc(C(F)(F)c4ccc5ncccc5c4)n3n2)cn1`: 101%.
Next, `c1ccc2[nH]c(-c3cscn3)nc2c1`: 119%; `OC[C@@H](O)[C@@H](O[C@@H]1O[C@H](CO)[C@H](O)[C@H](O)[C@H]1O)[C@H](O)[C@@H](O)CO`: 98.5%; `NC(=O)NC(=O)Cc1ccccc1`: 107%.
As for `COC1=C2C[C@@H](C)C[C@H](OC)[C@H](O)[C@@H](C)/C=C(\C)[C@H](OC(N)=O)[C@@H](OC)/C=C\C=C(/C)C(=O)NC(=CC1=O)C2=O` [Geldanamycin], the figure is 0.865%.
Consider `CNCCC(Oc1ccc(C(F)(F)F)cc1)c1ccccc1` (configuration not stated), for which the cell viability stood at 107%.
Next, `C=C1C(=O)O[C@@H]2C[C@@]3(C)CCC[C@H](C)C3=C[C@H]12`: 74%.
Next, `CCCCNC(=O)NS(=O)(=O)c1ccc(C)cc1`: 105%; `CCCS(=O)(=O)Nc1ccc(F)c(C(=O)c2c[nH]c3ncc(-c4ccc(Cl)cc4)cc23)c1F` [Vemurafenib (PLX4032)]: 114%; `COC(=O)c1c(C)cc(O)cc1O`: 98.5%.
For the compound `CC(=O)[C@H]1CC[C@H]2[C@@H]3C[C@H](C)C4=CC(=O)CC[C@]4(C)[C@H]3[C@@H](O)C[C@]12C`, the cell viability amounted to 85%.
Next, `O=S(=O)(O)CCS` [Mesna (Uromitexan, Mesnex)]: 90.7%; `O=S(=O)(O)CCS`: 104%.
Next, `CCn1cc(C(=O)O)c(=O)c2cnc(N3CCCC3)nc21`: 98%.
`CCCCCCCCCCCCC[N+](C)(C)Cc1ccccc1`: the cell viability came to 25.7%.
As for `CC(C)(C)NC[C@H](O)c1ccc(O)c(CO)c1`, the figure is 89.2%; as for `COC(=O)C[C@H]1C(C)(C)C(=O)[C@@H]2CC3=C4CC(=O)O[C@@H](c5ccoc5)[C@]4(C)CC[C@@H]3[C@@]1(C)C2=O`, 99.2%.
Next, `COc1ccc(C(=O)CC(=O)O)c2c1C=CC(C)(C)O2`: 99.5%; `CC(C)=CCC[C@](C)(O)C1CC=C(C)CC1` (some centres not stated): 105%.
Consider `CC1(C)NC(=O)N(c2ccc([N+](=O)[O-])c(C(F)(F)F)c2)C1=O`, for which the cell viability was 110%.
Next, `CN(C)Cc1ccc(-c2nc3cccc4c3n2CCNC4=O)cc1`: 100%; `Cc1[nH]c(/C=C2\C(=O)Nc3ccc(S(=O)(=O)N(C)c4cccc(Cl)c4)cc32)c(C)c1C(=O)N1CCN(C)CC1`: 62.8%; `CCCCCCc1ccc(O)cc1O`: 98.6%.
As for `COC(=O)[C@@H]1[C@H]2C[C@H]3c4[nH]c5ccccc5c4CCN3C[C@@H]2CC[C@@H]1O`, the figure is 101%; as for `C=C(C)[C@@H]1CC=C(C(=O)O)CC1`, 107%; as for `C[C@]12C=CC(=O)C=C1CC[C@@H]1[C@@H]2[C@@H](O)C[C@@]2(C)[C@H]1CC[C@]2(O)C(=O)COC(=O)CCC(=O)O`, 77.2%.
`CCCCOc1cc(C(=O)NCCN(CC)CC)c2ccccc2n1`: the cell viability amounted to 100%.
As for `O=C1CCc2cc(OCCCCc3nnnn3C3CCCCC3)ccc2N1`, the figure is 91.4%; as for `CCS(=O)(=O)CCn1c([N+](=O)[O-])cnc1C`, 99.5%.
As for `C[C@@]12C[C@@]3(O)O[C@@H](O1)[C@]1(COC(=O)c4ccccc4)[C@H]3C[C@@]12O[C@@H]1O[C@H](CO)[C@@H](O)[C@H](O)[C@H]1O`, the figure is 108%; as for `Sc1nc2ccccc2s1`, 115%; as for `COc1ccc2cc1Oc1ccc(cc1)C[C@H]1c3cc(c(OC)cc3CCN1C)Oc1c(OC)c(OC)cc3c1[C@H](C2)N(C)CC3`, 81.7%.
As to `CN(C)CCOC(=O)COc1ccc(Cl)cc1`, the cell viability was found to be 111%.
For the compound `O=C(OCc1ccccc1)c1ccccc1`, the cell viability came to 99.3%.
In the case of `OC(CCN1CCCCC1)(c1ccccc1)C1CCCCC1` (configuration not stated), the cell viability was 94%.
As for `N=C(N)N/N=C/c1c(Cl)cccc1Cl`, the figure is 101%; as for `CN(C)CC[C@@H](c1ccc(Cl)cc1)c1ccccn1`, 99% and 100%.
As for `CN(CCOc1ccc(CC2SC(=O)NC2=O)cc1)c1ccccn1` (configuration not stated) [Rosiglitazone (Avandia)], the figure is 55.1%; as for `Nc1cc(-c2ccncc2)c[nH]c1=O`, 102%.
Next, `C[C@H]1C[C@@H]2[C@H]([C@@H](O)C[C@@]3(C)[C@H]2CC[C@]3(O)C(=O)COC(=O)CCC(=O)O)[C@@]2(C)C=CC(=O)C=C12`: 90%; `Fc1cc(-c2cccc3ncc(-c4cnn(C5CCNCC5)c4)nc23)cc(F)c1CN1CCOCC1`: 24.6%; `COC(=O)C(N)CS` (configuration not stated): 100%.
As for `CC(N)C12CC3CC(CC(C3)C1)C2` (configuration not stated), the cell viability turned out to be 105%.
As for `CN(C)[C@@H]1C(O)=C(C(N)=O)C(=O)[C@@]2(O)C(O)=C3C(=O)c4c(O)ccc(Cl)c4[C@@H](O)[C@H]3C[C@@H]12`, the figure is 94.3%; as for `NC(N)=O`, 93.1%; as for `Cn1c([N+](=O)[O-])cnc1COC(N)=O`, 100%.
Take `N[C@@H](C(=O)N[C@@H]1C(=O)N2C(C(=O)O)=C(Cl)CS[C@H]12)c1ccccc1`: the cell viability is 97.7%.
As for `CC(Oc1ccccc1)C(=O)N[C@@H]1C(=O)N2[C@@H]1SC(C)(C)[C@@H]2C(=O)O` (some centres not stated), the figure is 93.2%; as for `COc1ccc(-c2cc(C(F)F)nn2-c2ccc(S(N)(=O)=O)cc2)cc1F`, 88.1%.
